{"source": "the supplement of paper PMC6411743", "assay_in_all_cases": "NP40-soluble protein abundance relative to vehicle (solubility fold change) (ratio); higher = more soluble protein in presence of ATP", "key": {"[1]": {"target": "T1, A0A0A0MSG2|J3KNW4 and related entries (UniProt Q14192)", "T1 sequence (whole entry)": "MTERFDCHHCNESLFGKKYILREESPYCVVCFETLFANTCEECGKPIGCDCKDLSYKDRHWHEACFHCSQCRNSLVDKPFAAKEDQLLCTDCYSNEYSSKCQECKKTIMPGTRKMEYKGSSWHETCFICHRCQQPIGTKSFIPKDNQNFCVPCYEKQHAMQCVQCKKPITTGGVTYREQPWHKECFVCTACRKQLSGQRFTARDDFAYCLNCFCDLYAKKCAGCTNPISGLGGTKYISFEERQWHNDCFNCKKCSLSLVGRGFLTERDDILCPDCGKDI", "procedure,_shortened": "(§1)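 Jurkat crude lysate (Dounce-homogenised) was treated with eight concentrations from 0.1 to 10 mM for 10 min at room temperature, then 3 min at 37 °C. It was solubilised with 0.8% NP40 and benzonase (60 min, 4 °C) and ultracentrifuged, and the supernatant was TMT-labelled for LC-MS/MS. Intensities were vsn-normalised, and the value is the fold change against the NP40-processed vehicle per replicate, from three independent experiments.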"}, "A0A0A0MT33|Q9UPN6": {"target": "T2, A0A0A0MT33|Q9UPN6 (UniProt Q9UPN6)", "T2 sequence (whole entry)": "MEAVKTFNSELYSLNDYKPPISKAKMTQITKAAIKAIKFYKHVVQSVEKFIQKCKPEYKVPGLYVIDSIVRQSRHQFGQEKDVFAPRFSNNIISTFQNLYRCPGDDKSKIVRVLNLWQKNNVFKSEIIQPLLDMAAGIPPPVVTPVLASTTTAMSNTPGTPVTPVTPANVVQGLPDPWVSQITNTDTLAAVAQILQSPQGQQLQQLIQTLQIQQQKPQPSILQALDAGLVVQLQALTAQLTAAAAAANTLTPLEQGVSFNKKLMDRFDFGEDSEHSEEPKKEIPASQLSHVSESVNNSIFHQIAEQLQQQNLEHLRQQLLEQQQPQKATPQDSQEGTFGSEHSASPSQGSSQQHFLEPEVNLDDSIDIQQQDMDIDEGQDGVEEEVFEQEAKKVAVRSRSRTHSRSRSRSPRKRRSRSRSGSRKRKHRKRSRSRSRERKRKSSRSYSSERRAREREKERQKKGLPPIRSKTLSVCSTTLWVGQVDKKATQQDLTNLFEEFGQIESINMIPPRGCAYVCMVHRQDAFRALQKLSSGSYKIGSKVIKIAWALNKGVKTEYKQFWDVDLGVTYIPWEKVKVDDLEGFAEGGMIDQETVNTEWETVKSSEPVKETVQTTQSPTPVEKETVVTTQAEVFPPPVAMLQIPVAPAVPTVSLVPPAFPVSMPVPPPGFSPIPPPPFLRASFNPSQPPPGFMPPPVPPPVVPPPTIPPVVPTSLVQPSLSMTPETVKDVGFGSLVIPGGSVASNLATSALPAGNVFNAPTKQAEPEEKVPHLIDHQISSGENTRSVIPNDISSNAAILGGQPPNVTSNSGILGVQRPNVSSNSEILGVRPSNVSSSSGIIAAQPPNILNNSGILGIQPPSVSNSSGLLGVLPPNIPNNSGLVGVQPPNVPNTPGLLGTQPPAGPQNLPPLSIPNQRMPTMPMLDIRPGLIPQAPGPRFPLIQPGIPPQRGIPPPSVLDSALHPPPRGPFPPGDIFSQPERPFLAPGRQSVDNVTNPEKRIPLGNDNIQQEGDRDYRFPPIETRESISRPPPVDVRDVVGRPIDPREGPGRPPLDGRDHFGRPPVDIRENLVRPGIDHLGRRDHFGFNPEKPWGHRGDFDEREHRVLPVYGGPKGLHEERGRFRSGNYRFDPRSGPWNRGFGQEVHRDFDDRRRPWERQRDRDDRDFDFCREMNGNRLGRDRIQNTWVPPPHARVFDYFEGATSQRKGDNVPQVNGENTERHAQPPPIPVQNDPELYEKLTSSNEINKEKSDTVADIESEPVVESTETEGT", "procedure,_shortened": "as §1"}, "A0A0A0MTG4|P82094": {"target": "T3, A0A0A0MTG4|P82094 (UniProt P82094)", "T3 sequence (whole entry)": "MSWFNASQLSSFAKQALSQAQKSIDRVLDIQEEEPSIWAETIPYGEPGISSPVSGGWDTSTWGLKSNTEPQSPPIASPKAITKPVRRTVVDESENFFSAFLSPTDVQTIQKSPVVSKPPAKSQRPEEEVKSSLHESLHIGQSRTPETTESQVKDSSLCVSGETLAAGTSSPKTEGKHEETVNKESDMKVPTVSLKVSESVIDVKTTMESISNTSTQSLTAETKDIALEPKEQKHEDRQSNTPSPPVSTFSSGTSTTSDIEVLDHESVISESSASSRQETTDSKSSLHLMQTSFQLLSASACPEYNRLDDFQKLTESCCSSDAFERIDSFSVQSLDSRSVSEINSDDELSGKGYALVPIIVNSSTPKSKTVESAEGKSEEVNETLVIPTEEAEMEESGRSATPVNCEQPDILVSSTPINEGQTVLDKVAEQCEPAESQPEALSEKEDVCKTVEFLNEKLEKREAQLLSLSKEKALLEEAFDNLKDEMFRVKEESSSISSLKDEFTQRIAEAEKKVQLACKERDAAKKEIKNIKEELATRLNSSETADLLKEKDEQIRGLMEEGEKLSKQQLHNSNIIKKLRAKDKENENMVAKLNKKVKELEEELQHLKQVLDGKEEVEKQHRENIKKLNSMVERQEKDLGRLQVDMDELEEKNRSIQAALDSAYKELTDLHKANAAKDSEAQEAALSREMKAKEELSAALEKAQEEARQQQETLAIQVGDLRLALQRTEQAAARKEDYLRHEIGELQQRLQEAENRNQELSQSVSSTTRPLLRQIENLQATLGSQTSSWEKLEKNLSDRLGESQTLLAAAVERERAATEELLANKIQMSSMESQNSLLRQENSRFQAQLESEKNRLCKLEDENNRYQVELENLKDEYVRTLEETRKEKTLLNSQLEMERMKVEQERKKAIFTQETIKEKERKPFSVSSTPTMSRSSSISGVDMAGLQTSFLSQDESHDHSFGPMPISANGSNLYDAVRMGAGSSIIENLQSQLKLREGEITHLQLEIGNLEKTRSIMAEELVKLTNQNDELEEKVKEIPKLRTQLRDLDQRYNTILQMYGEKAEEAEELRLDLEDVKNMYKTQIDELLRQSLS", "procedure,_shortened": "as §1"}, "A0A0A6YY96|P48200": {"target": "T4, A0A0A6YY96|P48200 (UniProt P48200)", "T4 sequence (whole entry)": "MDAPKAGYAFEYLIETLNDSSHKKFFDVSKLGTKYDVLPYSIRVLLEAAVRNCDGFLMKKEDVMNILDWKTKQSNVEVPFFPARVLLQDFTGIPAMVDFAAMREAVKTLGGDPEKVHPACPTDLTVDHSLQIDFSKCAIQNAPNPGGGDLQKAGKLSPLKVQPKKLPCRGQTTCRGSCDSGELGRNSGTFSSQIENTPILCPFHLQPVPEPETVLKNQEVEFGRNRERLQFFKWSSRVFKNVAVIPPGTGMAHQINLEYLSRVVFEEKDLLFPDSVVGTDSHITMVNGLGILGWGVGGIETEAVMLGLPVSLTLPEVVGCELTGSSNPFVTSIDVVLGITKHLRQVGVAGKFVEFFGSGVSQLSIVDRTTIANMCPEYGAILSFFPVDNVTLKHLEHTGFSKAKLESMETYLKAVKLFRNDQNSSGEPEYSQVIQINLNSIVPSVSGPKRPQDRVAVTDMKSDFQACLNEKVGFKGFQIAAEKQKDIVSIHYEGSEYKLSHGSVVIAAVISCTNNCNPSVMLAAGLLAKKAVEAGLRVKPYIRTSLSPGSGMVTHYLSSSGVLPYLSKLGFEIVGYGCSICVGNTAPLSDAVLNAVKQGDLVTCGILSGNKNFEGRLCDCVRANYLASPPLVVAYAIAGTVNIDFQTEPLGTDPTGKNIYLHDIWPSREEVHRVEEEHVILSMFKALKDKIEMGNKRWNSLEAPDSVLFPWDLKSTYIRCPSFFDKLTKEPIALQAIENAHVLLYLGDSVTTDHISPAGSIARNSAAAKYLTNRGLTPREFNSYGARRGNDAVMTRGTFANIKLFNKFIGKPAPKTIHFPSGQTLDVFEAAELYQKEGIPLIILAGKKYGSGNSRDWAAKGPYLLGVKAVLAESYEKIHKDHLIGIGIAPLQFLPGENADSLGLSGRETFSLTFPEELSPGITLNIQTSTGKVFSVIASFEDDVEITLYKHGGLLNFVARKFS", "procedure,_shortened": "as §1"}, "[2]": {"target": "T5, A0A0A6YYL4|P57737-3|P57737-4 (UniProt P57737)", "T5 sequence (whole entry)": "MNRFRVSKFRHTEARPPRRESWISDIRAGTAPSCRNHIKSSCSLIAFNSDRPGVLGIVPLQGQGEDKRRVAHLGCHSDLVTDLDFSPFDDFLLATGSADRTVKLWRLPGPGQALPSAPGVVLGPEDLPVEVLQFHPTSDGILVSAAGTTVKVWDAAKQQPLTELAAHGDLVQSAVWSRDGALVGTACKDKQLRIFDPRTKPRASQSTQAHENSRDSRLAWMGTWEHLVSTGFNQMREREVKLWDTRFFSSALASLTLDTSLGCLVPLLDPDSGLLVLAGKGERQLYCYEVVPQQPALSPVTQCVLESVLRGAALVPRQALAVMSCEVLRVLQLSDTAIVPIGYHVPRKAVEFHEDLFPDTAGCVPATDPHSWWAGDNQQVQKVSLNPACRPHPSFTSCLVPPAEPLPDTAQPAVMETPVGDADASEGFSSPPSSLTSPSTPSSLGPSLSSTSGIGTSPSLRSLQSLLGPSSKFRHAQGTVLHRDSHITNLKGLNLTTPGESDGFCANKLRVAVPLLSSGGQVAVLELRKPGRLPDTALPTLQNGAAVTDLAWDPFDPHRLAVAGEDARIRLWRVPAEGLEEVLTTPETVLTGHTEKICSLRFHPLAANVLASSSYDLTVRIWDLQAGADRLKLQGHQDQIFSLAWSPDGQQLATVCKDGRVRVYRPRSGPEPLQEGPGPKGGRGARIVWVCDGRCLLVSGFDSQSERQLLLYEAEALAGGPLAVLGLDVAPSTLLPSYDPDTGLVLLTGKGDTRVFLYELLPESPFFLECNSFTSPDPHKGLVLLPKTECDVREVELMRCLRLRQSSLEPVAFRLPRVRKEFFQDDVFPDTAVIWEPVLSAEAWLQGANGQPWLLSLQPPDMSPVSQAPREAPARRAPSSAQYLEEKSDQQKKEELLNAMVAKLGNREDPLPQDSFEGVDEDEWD", "procedure,_shortened": "as §1"}}, "note": "± gives the standard deviation of the averaged measurements. The list shows a part of the results, in another mix than the full data."}
{"compound": "Nc1ncnc2c1ncn2[C@@H]1O[C@H](COP(=O)(O)OP(=O)(O)OP(=O)(O)O)[C@@H](O)[C@H]1O", "note": "[adenosine triphosphate]", "values": [{"measurement": "NP40-soluble protein abundance", "setting": "[1]; concentration: 1mM", "result": "1.05 ± 0.0076"}, {"measurement": "NP40-soluble protein abundance", "setting": "[1]; concentration: 2mM", "result": "1.1 ± 0.1"}, {"measurement": "NP40-soluble protein abundance", "setting": "[1]; concentration: 4mM", "result": "1.07 ± 0.087"}, {"measurement": "NP40-soluble protein abundance", "setting": "[1]; concentration: 6mM", "result": "1.07 ± 0.019"}, {"measurement": "NP40-soluble protein abundance", "setting": "[1]; concentration: 8mM", "result": "1.14 ± 0.029"}, {"measurement": "NP40-soluble protein abundance", "setting": "[1]; concentration: 10mM", "result": "1.08 ± 0.037"}, {"measurement": "NP40-soluble protein abundance", "setting": "A0A0A0MT33|Q9UPN6; concentration: 1mM", "result": "1.03 ± 0.063"}, {"measurement": "NP40-soluble protein abundance", "setting": "A0A0A0MT33|Q9UPN6; concentration: 2mM", "result": "1.07 ± 0.022"}, {"measurement": "NP40-soluble protein abundance", "setting": "A0A0A0MT33|Q9UPN6; concentration: 4mM", "result": "1.03 ± 0.031"}, {"measurement": "NP40-soluble protein abundance", "setting": "A0A0A0MT33|Q9UPN6; concentration: 6mM", "result": "1.1 ± 0.086"}, {"measurement": "NP40-soluble protein abundance", "setting": "A0A0A0MT33|Q9UPN6; concentration: 8mM", "result": "1.06 ± 0.031"}, {"measurement": "NP40-soluble protein abundance", "setting": "A0A0A0MT33|Q9UPN6; concentration: 10mM", "result": "1.05 ± 0.023"}, {"measurement": "NP40-soluble protein abundance", "setting": "A0A0A0MTG4|P82094; concentration: 1mM", "result": "0.944 ± 0.042"}, {"measurement": "NP40-soluble protein abundance", "setting": "A0A0A0MTG4|P82094; concentration: 2mM", "result": "0.944 ± 0.027"}, {"measurement": "NP40-soluble protein abundance", "setting": "A0A0A0MTG4|P82094; concentration: 4mM", "result": "0.959 ± 0.017"}, {"measurement": "NP40-soluble protein abundance", "setting": "A0A0A0MTG4|P82094; concentration: 6mM", "result": "0.99 ± 0.029"}, {"measurement": "NP40-soluble protein abundance", "setting": "A0A0A0MTG4|P82094; concentration: 8mM", "result": "0.933 ± 0.014"}, {"measurement": "NP40-soluble protein abundance", "setting": "A0A0A0MTG4|P82094; concentration: 10mM", "result": "0.9393 ± 0.0069"}, {"measurement": "NP40-soluble protein abundance", "setting": "A0A0A6YY96|P48200; concentration: 1mM", "result": "1.06 ± 0.092"}, {"measurement": "NP40-soluble protein abundance", "setting": "A0A0A6YY96|P48200; concentration: 2mM", "result": "1.04 ± 0.047"}, {"measurement": "NP40-soluble protein abundance", "setting": "A0A0A6YY96|P48200; concentration: 4mM", "result": "1.04 ± 0.081"}, {"measurement": "NP40-soluble protein abundance", "setting": "A0A0A6YY96|P48200; concentration: 6mM", "result": "1.07 ± 0.034"}, {"measurement": "NP40-soluble protein abundance", "setting": "A0A0A6YY96|P48200; concentration: 8mM", "result": "1.03 ± 0.065"}, {"measurement": "NP40-soluble protein abundance", "setting": "A0A0A6YY96|P48200; concentration: 10mM", "result": "1.05 ± 0.14"}, {"measurement": "NP40-soluble protein abundance", "setting": "[2]; concentration: 1mM", "result": "0.999 ± 0.014"}, {"measurement": "NP40-soluble protein abundance", "setting": "[2]; concentration: 2mM", "result": "0.981 ± 0.017"}, {"measurement": "NP40-soluble protein abundance", "setting": "[2]; concentration: 4mM", "result": "0.969 ± 0.011"}]}
